# Results deposited as PubChem BioAssay AID686937 (Drosophila RNAi Screening Center, 2013)
# Test: 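Knock-downs that reduce output of a secreted reporter enzyme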 (primary screen)
# System: Drosophila S2 cells expressing secreted horseradish peroxidase
# Knock-down reagent: long dsRNA against Drosophila genes
# Timing: about 5.5 days (5 days dsRNA, then 12 h reporter induction)
# Treatment: reporter expression induced after 5 days of dsRNA, read 12 h later; inducer not stated
# Read-out: 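After 5 days of dsRNA and 12 h of reporter induction, medium peroxidase read by chemiluminescence and scored as per-plate z-score; higher values mean more reporter released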
# Scale: z-score: higher = more reporter secreted into medium
# The deposit covers about 23,000 reagents; below is an unselected part of those that have a named target and a result. 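Reduced-secretion tags in replicate 1 do not always agree with the z-scores; no criterion for assigning the tags was given.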 The numbers tell different reagents against one gene apart. A plus sign joins genes that one reagent is predicted to hit. The record does not give: the amount of reagent.
gene,reagent no.,"z-score, replicate 1","z-score, replicate 2","z-score, replicate 3","z-score, replicate 4","phenotype, replicate 1"
CG15473,1,0.31,0.42,,,
CG14857,1,-0.12,0.45,,,
salto,1,0.2,0.35,,,
CG32086,1,0.38,0.22,,,
l(3)72Dp (lethal (3) 72Dp),1,0.18,0.06,,,
CG32808,1,0.34,0.84,,,
lncRNA:CR42862 + CG33229,1,0.26,0.26,,,
CG1273,1,0.27,0.04,,,
Asator,1,0.47,0.27,,,
Coq6 (Coenzyme Q6),1,0.19,0.28,,,
"GluRS-m (Glutamyl-tRNA synthetase, mitochondrial)",1,0.13,0.3,,,
mRpL45 (mitochondrial ribosomal protein L45),1,0.39,-0.08,,,
Rop (Ras opposite),1,-0.06,-0.22,,,
MSBP (membrane steroid binding protein),1,0.41,0.33,,,
CG7997,1,0.36,0.27,,,
jhamt (juvenile hormone acid methyltransferase),1,-0.25,0.18,,,
CR32011 + CR32010 + PlexB + 1 more,1,-0.01,-0.71,,,
CG44837,1,-0.55,-0.07,,,
CG44837,2,0.1,0.14,,,
sisA,1,0.27,0.39,,,
CG31077,1,0,-0.64,,,
CG42713,1,-0.08,-0.32,,,
Ctl2 (Choline transporter-like 2),1,0.51,0.53,,,
me31B (maternal expression at 31B),1,-1.68,-1.3,,,reduced secretion
Hsp60B (Heat shock protein 60B),1,0.17,0.48,,,
RhoGAP100F (Rho GTPase activating protein at 100F),1,0.17,0.25,,,
Ork1 (Open rectifier K[+] channel 1),1,-0.05,0.17,,,
CG15629,1,0.28,0.31,,,
CG6885,1,0.39,-0.07,,,
CG31327,1,0.23,0.54,,,
CG13962,1,-0.14,0.08,,,
CG42854,1,-0.81,-0.2,,,
CG4793,1,-0.17,-0.03,,,
LManIV (Lysosomal alpha-mannosidase IV),1,0.35,0.41,,,
Elba3 (Early boundary activity 3),1,0.24,0.26,,,
Ir94a (Ionotropic receptor 94a),1,-0.91,-0.04,,,
CG3347,1,0.17,0.39,,,
CG4408,1,0.02,0.19,,,
Grl40a (Gustatory receptor-like 40a),1,-0.16,0.12,,,
CG15256,1,-8.23,-10.9,,,reduced secretion
CG15256,2,0.13,-0.09,,,
Rbp9 (RNA-binding protein 9),1,0.56,0.44,,,
Rbp9 (RNA-binding protein 9),2,0.96,0.79,,,
Plp (Pericentrin-like protein),1,0.67,0.5,,,
Plp (Pericentrin-like protein),2,-0.03,0.08,,,
Plp (Pericentrin-like protein),3,0.26,0.27,,,
tyn (trynity),1,0.44,0.26,,,
Rab23,1,0.34,-0.36,,,
hid (head involution defective),1,0.15,0.31,,,
Alg13 (Alg13 UDP-N-acetylglucosaminyltransferase subunit),1,0.18,0.46,-0.21,0.56,
CG12782,1,0.32,0.33,,,
CG32281,1,0.25,0.35,,,
Zaf1 (ZAD and Architectural Function 1),1,0.28,0.55,,,
Yp2 (Yolk protein 2),1,0.18,0.26,,,
CG5509,1,0.49,0.84,,,
CG12054,1,-2.32,-1.14,,,reduced secretion
